The target in this assay is FLAG-tagged Cdc48-C115S (S. cerevisiae) (UniProt P25694). The assay is described as follows: affinity purification with mass spectrometry.

Chains of the proteins cited; added tags and fusions are not shown. Lines headed by an entry give the natural chain unless they say otherwise; changes in a name come on top.
UniProt P25694: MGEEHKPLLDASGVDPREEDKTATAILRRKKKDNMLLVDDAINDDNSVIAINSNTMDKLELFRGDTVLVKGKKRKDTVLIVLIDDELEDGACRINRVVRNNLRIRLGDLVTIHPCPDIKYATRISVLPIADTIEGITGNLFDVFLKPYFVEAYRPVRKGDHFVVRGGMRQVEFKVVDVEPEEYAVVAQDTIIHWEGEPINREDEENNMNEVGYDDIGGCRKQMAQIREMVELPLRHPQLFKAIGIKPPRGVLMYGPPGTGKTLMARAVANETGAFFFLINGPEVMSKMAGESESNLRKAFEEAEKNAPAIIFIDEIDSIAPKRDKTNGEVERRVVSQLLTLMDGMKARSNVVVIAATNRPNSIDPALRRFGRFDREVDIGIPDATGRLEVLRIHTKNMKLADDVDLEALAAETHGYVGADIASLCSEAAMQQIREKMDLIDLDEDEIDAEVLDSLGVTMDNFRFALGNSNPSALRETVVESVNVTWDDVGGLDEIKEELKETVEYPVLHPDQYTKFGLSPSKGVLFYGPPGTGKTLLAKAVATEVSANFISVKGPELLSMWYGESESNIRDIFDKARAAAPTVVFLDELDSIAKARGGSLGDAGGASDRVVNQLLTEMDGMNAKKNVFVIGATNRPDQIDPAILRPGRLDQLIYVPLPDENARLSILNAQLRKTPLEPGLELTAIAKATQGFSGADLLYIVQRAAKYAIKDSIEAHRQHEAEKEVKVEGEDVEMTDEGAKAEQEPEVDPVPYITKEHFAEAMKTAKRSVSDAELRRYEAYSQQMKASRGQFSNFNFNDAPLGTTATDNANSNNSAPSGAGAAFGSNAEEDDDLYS
UniProt Q12532: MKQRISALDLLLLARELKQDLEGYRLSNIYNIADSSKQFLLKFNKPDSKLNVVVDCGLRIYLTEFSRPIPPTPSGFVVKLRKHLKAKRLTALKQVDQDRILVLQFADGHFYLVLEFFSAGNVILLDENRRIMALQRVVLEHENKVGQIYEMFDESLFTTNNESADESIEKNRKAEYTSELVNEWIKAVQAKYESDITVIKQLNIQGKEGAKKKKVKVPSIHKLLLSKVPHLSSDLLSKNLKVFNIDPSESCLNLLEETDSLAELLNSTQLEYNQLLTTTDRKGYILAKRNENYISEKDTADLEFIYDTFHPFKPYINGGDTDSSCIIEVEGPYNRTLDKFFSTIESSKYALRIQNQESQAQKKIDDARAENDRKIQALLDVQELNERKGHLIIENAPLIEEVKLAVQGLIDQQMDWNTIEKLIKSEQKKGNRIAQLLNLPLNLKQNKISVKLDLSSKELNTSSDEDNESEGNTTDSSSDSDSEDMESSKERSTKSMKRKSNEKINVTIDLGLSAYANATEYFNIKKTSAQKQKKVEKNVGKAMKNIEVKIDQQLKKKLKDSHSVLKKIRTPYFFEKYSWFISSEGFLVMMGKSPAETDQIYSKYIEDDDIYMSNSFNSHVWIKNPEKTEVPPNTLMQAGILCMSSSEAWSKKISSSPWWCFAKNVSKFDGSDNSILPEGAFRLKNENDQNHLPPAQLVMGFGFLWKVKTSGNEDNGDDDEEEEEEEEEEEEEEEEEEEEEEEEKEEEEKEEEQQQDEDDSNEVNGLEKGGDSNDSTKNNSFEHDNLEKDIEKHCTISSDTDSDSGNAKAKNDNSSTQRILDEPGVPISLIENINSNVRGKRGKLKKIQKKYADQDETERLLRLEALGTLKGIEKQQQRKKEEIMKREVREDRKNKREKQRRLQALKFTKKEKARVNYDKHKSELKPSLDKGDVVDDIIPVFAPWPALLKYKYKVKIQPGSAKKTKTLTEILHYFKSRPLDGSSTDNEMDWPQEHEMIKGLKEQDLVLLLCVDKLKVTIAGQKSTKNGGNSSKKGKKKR

These are yes or no findings as the source states them, for the method shown. In cells and extracts the contact can be indirect. Here binding means that the protein was enriched with, or labelled near, the bait; the list need not be complete.

For Rqc2 (from UniProt Q12532 1-1038), the binding result is “binds”.

These data come from doi:10.1101/733709.
